Results are given in words; binding and its absence hold for the method and conditions named. Binding seen in cells or lysates may run through a third protein. Some entries that bind do so weakly or less than the wild type. Tags and fused reporters may be left off the sequences shown.
Target: T1, SBP-tagged wild-type human TSEN (TSEN2, SBP-TSEN15, TSEN34, TSEN54) (human) (UniProt Q8NCE0+Q8WW01+Q9BSV6+Q7Z6J9)
T1 sequence 1: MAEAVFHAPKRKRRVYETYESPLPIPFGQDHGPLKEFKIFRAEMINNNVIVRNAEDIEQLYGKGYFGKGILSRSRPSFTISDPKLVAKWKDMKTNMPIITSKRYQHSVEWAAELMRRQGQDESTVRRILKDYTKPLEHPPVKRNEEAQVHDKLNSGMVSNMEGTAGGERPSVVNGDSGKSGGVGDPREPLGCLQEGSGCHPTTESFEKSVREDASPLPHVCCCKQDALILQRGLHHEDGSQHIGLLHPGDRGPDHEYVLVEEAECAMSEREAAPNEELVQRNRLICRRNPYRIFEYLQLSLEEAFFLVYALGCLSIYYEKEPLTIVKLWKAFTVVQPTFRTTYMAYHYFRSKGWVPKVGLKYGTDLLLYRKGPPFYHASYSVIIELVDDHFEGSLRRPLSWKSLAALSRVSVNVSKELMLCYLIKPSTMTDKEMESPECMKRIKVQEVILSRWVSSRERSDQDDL
T1 sequence 2: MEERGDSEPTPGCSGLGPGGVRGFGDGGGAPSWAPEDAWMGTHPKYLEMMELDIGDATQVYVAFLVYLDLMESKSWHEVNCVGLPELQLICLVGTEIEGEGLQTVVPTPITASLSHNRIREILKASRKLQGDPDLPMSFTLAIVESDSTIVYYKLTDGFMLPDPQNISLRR
T1 sequence 3: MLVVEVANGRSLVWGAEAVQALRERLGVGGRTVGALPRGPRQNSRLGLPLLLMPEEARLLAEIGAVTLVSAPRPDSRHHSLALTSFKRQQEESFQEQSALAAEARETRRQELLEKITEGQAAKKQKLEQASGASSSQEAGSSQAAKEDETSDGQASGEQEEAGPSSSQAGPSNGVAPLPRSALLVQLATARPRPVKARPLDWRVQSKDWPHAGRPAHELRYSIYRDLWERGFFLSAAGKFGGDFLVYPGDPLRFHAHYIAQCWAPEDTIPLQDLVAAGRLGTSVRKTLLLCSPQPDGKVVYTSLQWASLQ
T1 sequence 4: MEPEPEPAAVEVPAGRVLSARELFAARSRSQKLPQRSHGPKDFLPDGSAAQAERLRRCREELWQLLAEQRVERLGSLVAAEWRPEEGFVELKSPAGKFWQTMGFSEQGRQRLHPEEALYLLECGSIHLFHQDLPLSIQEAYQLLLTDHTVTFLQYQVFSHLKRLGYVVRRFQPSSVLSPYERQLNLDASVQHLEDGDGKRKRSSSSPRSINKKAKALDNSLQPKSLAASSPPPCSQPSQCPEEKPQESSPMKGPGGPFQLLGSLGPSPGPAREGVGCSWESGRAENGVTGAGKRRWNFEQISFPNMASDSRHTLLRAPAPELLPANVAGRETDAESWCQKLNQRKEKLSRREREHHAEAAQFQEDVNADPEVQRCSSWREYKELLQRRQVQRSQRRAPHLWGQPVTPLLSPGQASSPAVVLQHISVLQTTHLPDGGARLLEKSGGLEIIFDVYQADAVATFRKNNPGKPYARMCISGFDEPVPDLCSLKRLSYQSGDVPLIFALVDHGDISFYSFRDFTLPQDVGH
Experiment: pull-down

B1: MBP-CLP1 (MBP-TEV-CLP1 construct of the RNA kinase CLP1) (enzyme, UniProt Q92989 1-425)
chain: MGEEANDDKKPTTKFELERETELRFEVEASQSVQLELLTGMAEIFGTELTRNKKFTFDAGAKVAVFTWHGCSVQLSGRTEVAYVSKDTPMLLYLNTHTALEQMRRQAEKEEERGPRVMVVGPTDVGKSTVCRLLLNYAVRLGRRPTYVELDVGQGSVSIPGTMGALYIERPADVEEGFSIQAPLVYHFGSTTPGTNIKLYNKITSRLADVFNQRCEVNRRASVSGCVINTCGWVKGSGYQALVHAASAFEVDVVVVLDQERLYNELKRDLPHFVRTVLLPKSGGVVERSKDFRRECRDERIREYFYGFRGCFYPHAFNVKFSDVKIYKVGAPTIPDSCLPLGMSQEDNQLKLVPVTPGRDMVHHLLSVSTAEGTEENLSETSVAGFIVVTSVDLEHQVFTVLSPAPRPLPKNFLLIMDIRFMDLK
In the case of B1, the binding is reported as “binds”.

Reference: paper doi:10.1101/2022.09.03.506465
